PubChem BioAssay AID1259254, NCATS, 2017
The deposit covers about 59,000 reagents; this is an unselected part. Of all reagents, about 1,550 (2.6%) were called active. 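G2 share is only a proxy for re-replication; each gene was hit by three separate siRNAs, and active genes were retested.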 The numbers tell different reagents against one gene apart. Not all columns of the deposit are shown. Reagent sequences are not shown. Not given: the amount of reagent.

Purpose: 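Finding genes that stop cells copying their DNA twice in one cycle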 (primary screen)
System: human HCT116 colorectal cancer cells
Reagents: single siRNA against human genes
Time to read-out: 3 days
Detection: 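Imaged Hoechst DNA stain sorts each cell into a cycle phase by DNA amount; per plate, G2 fraction set to 0% for non-targeting and 100% for GMNN siRNA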
Reading the numbers: G2 robust z-score: higher = more G2 cells, more excess DNA replication
Call rule: 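An siRNA counts as active if its G2 robust z-score lies at least 5 MADs above the screen median; here such calls match roughly 38% of GMNN control or more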

G2 robust z-score, by target gene and reagent
UNC45B (unc-45 myosin chaperone B): #1 7.85 active; #2 -0.769 inactive; #3 -0.645 inactive
WASH5P (WASP family homolog 5, pseudogene): #1 -0.103 inactive; #2 -0.929 inactive; #3 0.908 inactive
RFX2 (regulatory factor X2): #1 -0.119 inactive; #2 -0.489 inactive; #3 0.562 inactive
CNTNAP3 (contactin associated protein family member 3): #1 0.735 inactive; #2 0.214 inactive; #3 0.129 inactive
SLC25A44: #1 0.35 inactive; #2 -0.954 inactive; #3 -1.06 inactive
KLHL20 (kelch like family member 20): #1 2.56 inactive; #2 0.156 inactive; #3 2.36 inactive
MAP10 (microtubule associated protein 10): #1 4.96 inactive; #2 4.19 inactive; #3 -1.02 inactive
DNAH1 (dynein axonemal heavy chain 1): #1 -0.842 inactive; #2 0.281 inactive; #3 0.102 inactive
FAM226B (family with sequence similarity 226 member B): #1 -0.312 inactive; #2 0.123 inactive; #3 -0.485 inactive; #4 3.28 inactive; #5 -0.891 inactive; #6 -0.624 inactive
RPL31P57 (ribosomal protein L31 pseudogene 57): #1 0.542 inactive; #2 -0.33 inactive; #3 -0.929 inactive
RORC (RAR related orphan receptor C): #1 -0.725 inactive; #2 2.11 inactive; #3 -1.44 inactive
TIMELESS (timeless circadian regulator): #1 6.11 active; #2 1.77 inactive; #3 -0.887 inactive
OR51I2 (olfactory receptor family 51 subfamily I member 2): #1 1.31 inactive; #2 0.582 inactive; #3 0.231 inactive
CDKN1B (cyclin dependent kinase inhibitor 1B): #1 -0.422 inactive; #2 7.07 active; #3 -0.877 inactive
ERICH5 (glutamate rich 5): #1 0.186 inactive; #2 -1 inactive; #3 0.2 inactive
